Taken from: PubChem BioAssay AID504774 (Drosophila RNAi Screening Center, 2011)

Aim: 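Knock-downs that shift viability of MMS-exposed cells relative to untreated ones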 (primary screen)
Cell system: Drosophila Kc167 cells
Knock-down reagent: long dsRNA against Drosophila genes, about 0.25 µg dsRNA per well
Time to read-out: about 6 days: 3 days knock-down, then 3 days with or without MMS
Challenge: methyl methanesulphonate 0.004% (w/v) for 3 days after knock-down
Measurement: 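Viability in wells given MMS, read as ATP luminescence, normalised by quantiles plate by plate and averaged across replicates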
Scale: mean viability with MMS and viability with MMS: higher = more surviving cells after MMS
The screen tested about 23,000 reagents; this is a random part of those that have a named target and a result. 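Values are quantile-normalised luminescence on an arbitrary scale; higher means more cells surviving MMS.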 A plus sign joins genes that one reagent is predicted to hit. Further read-outs or replicates are left out here.

With knock-down of alpha-Est6 [DRSC12618] the results were mean viability with MMS 3.33e6; viability with MMS, replicate 1 = 3.73e6. Against Osi6 [DRSC12128], the entry reads mean viability with MMS 3.47e6; viability with MMS, replicate 1 = 3.97e6. Knock-down of BaraC [DRSC03885] gave: mean viability with MMS 3.42e6; viability with MMS, replicate 1 = 3.75e6. For CG42784 [DRSC02534], the entry reads mean viability with MMS 3.54e6; viability with MMS, replicate 1 = 3.69e6. Depletion of CG42784 [DRSC02535] resulted in: mean viability with MMS 2.94e6; viability with MMS, replicate 1 = 3.54e6. Against CG42784 [DRSC22804], the values are mean viability with MMS 3.43e6; viability with MMS, replicate 1 = 4.10e6.

Silencing of CG42784 [DRSC23000] resulted in: mean viability with MMS 3.61e6; viability with MMS, replicate 1 = 4.00e6. For MstProx + Mst84Da [DRSC12597] the deposit lists mean viability with MMS 3.45e6; viability with MMS, replicate 1 = 3.79e6. Against Adk3 [DRSC05917], the entry reads mean viability with MMS 3.77e6; viability with MMS, replicate 1 = 4.40e6. Knock-down of Sr-CIII [DRSC22262] resulted in: mean viability with MMS 3.42e6; viability with MMS, replicate 1 = 3.95e6. Egfr [DRSC03871] scored mean viability with MMS 3.50e6; viability with MMS, replicate 1 = 3.89e6. Against Egfr [DRSC04613], the entry reads mean viability with MMS 3.67e6; viability with MMS, replicate 1 = 4.16e6.

After knock-down of CG11865 [DRSC01872], the screen gave mean viability with MMS 3.56e6; viability with MMS, replicate 1 = 4.12e6. Silencing of Chd1 [DRSC00745] came out at: mean viability with MMS 3.56e6; viability with MMS, replicate 1 = 4.03e6.

Entries listed so far whose gene name begins with E or e:
Egfr [DRSC03871] → mean viability with MMS: 3.50e6; viability with MMS, replicate 1: 3.89e6
Egfr [DRSC04613] → mean viability with MMS: 3.67e6; viability with MMS, replicate 1: 4.16e6
